# Laboratory results published in PubChem BioAssay (EPA / NIEHS).
# Chains of the proteins cited; added tags and fusions are not shown. Lines headed by an entry give the natural chain unless they say otherwise; changes in a name come on top.
# UniProt P10275: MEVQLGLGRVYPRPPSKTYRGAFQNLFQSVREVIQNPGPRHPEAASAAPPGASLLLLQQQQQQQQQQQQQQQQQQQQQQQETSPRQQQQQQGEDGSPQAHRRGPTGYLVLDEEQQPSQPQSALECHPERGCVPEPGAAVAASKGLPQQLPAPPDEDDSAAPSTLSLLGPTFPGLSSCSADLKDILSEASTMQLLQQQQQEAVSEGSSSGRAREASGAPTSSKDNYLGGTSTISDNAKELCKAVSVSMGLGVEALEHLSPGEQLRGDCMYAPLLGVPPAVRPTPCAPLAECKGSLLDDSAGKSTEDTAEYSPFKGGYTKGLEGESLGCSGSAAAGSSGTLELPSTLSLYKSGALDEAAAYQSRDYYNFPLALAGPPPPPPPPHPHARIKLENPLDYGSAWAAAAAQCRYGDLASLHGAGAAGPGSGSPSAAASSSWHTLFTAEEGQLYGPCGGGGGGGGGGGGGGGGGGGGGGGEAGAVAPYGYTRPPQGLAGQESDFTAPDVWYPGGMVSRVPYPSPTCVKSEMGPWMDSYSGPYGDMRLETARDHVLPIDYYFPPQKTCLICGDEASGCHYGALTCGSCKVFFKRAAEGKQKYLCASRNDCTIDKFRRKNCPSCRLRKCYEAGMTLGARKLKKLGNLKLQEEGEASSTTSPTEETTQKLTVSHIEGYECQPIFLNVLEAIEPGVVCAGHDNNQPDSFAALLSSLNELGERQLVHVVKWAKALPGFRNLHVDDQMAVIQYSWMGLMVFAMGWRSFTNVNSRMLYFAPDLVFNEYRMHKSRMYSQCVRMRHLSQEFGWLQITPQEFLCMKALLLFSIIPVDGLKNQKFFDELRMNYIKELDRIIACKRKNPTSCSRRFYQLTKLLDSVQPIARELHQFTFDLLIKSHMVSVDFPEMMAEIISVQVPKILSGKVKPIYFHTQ
# UniProt P03372, whole entry, looked up: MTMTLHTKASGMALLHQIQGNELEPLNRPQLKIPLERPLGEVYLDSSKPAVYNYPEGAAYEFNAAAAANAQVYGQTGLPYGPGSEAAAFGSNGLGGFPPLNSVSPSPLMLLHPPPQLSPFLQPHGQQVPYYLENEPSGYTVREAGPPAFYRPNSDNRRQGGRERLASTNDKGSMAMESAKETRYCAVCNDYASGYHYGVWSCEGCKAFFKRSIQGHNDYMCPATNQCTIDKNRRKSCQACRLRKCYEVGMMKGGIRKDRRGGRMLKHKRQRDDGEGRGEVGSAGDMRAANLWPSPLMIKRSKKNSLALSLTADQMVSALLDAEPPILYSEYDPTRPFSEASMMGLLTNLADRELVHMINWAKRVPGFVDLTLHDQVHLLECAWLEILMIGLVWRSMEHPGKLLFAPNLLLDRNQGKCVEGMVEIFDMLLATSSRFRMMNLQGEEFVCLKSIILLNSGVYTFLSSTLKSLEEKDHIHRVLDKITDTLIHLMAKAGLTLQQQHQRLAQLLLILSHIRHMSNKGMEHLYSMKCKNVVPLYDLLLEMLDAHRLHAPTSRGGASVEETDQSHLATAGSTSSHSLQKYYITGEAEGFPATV
# Where “and” joins values, the source holds several entries; their conditions need not be identical. Equal values may be shown once. The shares of active, inactive and inconclusive entries below differ from those in the screen. For some of these results: Potencies beside an inconclusive call are fits to weak or partial responses and may not hold up. The source holds several records for some structures; these can differ, active in one and inactive in another. Calls of active or inactive are those of the source. How the source made its calls: active means hit-call score of the fitted dose curve at least 0.9, where 1 is the maximum; inconclusive means response in the unintended direction; inactive means score below 0.9.
# Experiments:
# [1] = CCTE_Deisenroth_AIME_96WELL_CTox_Active: Cytotoxicity Assessment (CTOX) in CCTE's 96-well Estrogen Receptor Transactivation Assay with AIME metabolic competence (metabolism positive), Deisenroth Lab (AID 2284028)
# Procedure, shortened: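 Chemicals (0.002–200 uM) were first incubated 2 h with alginate-immobilized phenobarbital/beta-naphthoflavone-induced male rat liver S9; conditioned medium then went onto VM7Luc4E2 cells for 24 h, with viability read by protease-substrate fluorescence, fitted bidirectionally.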
# [2] = CCTE_Deisenroth_AIME_96WELL_CTox_Inactive: Cytotoxicity Assessment (CTOX) in CCTE's 96-well Estrogen Receptor Transactivation Assay without AIME metabolic competence (metabolism negative), Deisenroth Lab (AID 2284029)
# Procedure, shortened: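 Chemicals (10-point series, 0.002-200 uM) were incubated 2 h with alginate-water microspheres lacking S9. The conditioned medium was then transferred onto VM7Luc4E2 cells for 24 h. Viability was measured by protease-substrate cleavage to a fluorescent probe, with loss of signal fitted bidirectionally; n≥4 experimental replicates.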
# [3] = CCTE_Shafer_MEA_dev_LDH: CCTE's Lactate Dehydrogenase Assay for Cytotoxicity in the Neural Network Formation Assay, Shafer Lab (AID 2284068);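 further: exposure for twelve days from plating with re-dosing on DIV 5 and 9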
# Procedure, shortened: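 Cytotoxicity companion to network-formation recordings: rat cortical neurons received compound over 12 days of development, re-dosed at DIV 5 and 9 feeds. Viability was inferred from LDH enzyme activity relative to DMSO.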
# [4] = CCTE_Shafer_MEA_acute_AB: CCTE's Alamar Blue Assay for Cytotoxicity in the Neural Acute Assay, Shafer Lab (AID 2284069);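 further: active compounds lower the viability signal compared with DMSO wells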
# Procedure, shortened: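 Metabolic activity in chemically exposed rat cortical neurons (MEA cultures, day 13/15 post-plating) measured via CellTiter Blue resazurin reduction, 544/590 nm fluorescence; fitted relative to DMSO, with signal loss indicating reduced viability.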
# [5] = CCTE_Shafer_MEA_dev_AB: CCTE's Alamar Blue Assay for Cytotoxicity in the Neural Network Formation Assay, Shafer Lab (AID 2284083);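 further: twelve days of exposure from plating with re-dosing on DIV 5 and 9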
# Procedure, shortened: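 Fluorescent resazurin reduction serves as the viability read-out, with DMSO as negative control and baseline. Cells were primary rat cortical neurons grown on MEA plates and dosed from day 0 to day 12, treatment renewed on DIV 5 and 9.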
# [6] = CCTE_Mundy_HCI_hN2_NOG_NeuriteCount: CCTE's Neurite Outgrowth Assay in human hN2 cells for Neurite Count, Mundy Lab (AID 2284219)
# Procedure, shortened: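 In this morphology assay, hNP1-derived neurons received test chemical 2 h post-plating and were fixed two days later in warm paraformaldehyde/sucrose containing Hoechst 33342. Neurites, labelled by rabbit anti-βIII-tubulin (1:800) and Alexa Fluor-488 (1:500), were counted automatically.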
# [7] = target: Nucleoli Translocation, AR (gene 367) (UniProt P10275); test: UPITT_HCI_U2OS_AR_TIF2_Nucleoli_Agonist: University of Pittsburgh U2OS Androgen Receptor-Transcriptional Intermediary Factor 2 (AR-TIF2) Agonism High Content Imaging Assay for Nucleoli Translocation (AID 2283998)
# Procedure, shortened: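 U2OS cells expressing RFP-tagged human AR and GFP-tagged TIF2; red fluorescence in nucleoli quantified by high-content imaging. Primary screen at 20 uM final (0.2% DMSO); concentration-response 0.195–50 uM (0.5% DMSO), fitted upward versus DMSO.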
# [8] = target: Estrogen receptor (Homo sapiens) (UniProt P03372); test: CCTE_Deisenroth_AIME_384WELL_LUC_Active: CCTE's 384-well Estrogen Receptor Transactivation Assay with AIME metabolic competence (ERTA luciferase; metabolism positive), Deisenroth Lab (AID 2284030)
# Procedure, shortened: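 Chemicals (10-point, 0.002-200 uM) were first incubated 2 hours with alginate-immobilized induced male Sprague Dawley rat liver S9. The conditioned medium was then applied to VM7Luc4E2 cells for 24 hours, with ER luciferase induction read by luminescence relative to 17beta-estradiol.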
# [9] = CCTE_Deisenroth_AIME_384WELL_CTox_Active: Cytotoxicity Assessment (CTOX) in CCTE's 384-well Estrogen Receptor Transactivation Assay with AIME metabolic competence (metabolism positive), Deisenroth Lab (AID 2284037);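 further: activity means signal loss indicating cell death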
# Procedure, shortened: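 VM7Luc4E2 breast cells received medium pre-incubated 2 h with chemical over alginate microspheres holding induced male Sprague Dawley rat liver S9; viability read 24 h later by protease-substrate fluorescence. Loss of signal, bidirectional fit, 0.002–200 uM.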
# [10] = target: Estrogen receptor (Homo sapiens) (UniProt P03372); test: CCTE_Deisenroth_AIME_384WELL_LUC_Inactive: CCTE's 384-well Estrogen Receptor Transactivation Assay without AIME metabolic competence (ERTA luciferase; metabolism negative), Deisenroth Lab (AID 2284038);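 further: hits raise estrogen receptor luciferase signal so potencies reflect agonists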
# Procedure, shortened: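 Chemicals (10-point series, 0.002 - 200 uM) were incubated 2 hours with alginate-water microsphere lids lacking S9, then the conditioned medium was transferred to VM7Luc4E2 breast cells for 24 hour. Luciferase induction was read by bioluminescence, fitted upward relative to 17beta-estradiol.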
# [11] = CCTE_Deisenroth_AIME_384WELL_CTox_Inactive: Cytotoxicity Assessment (CTOX) in CCTE's 384-well Estrogen Receptor Transactivation Assay without AIME metabolic competence (metabolism negative), Deisenroth Lab (AID 2284039);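 further: cell viability via live-cell protease substrate cleaved to fluorescent probe; cells exposed 24 h to medium preincubated 2 h with alginate-water beads without S9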
# Procedure, shortened: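 Metabolism-negative arm: chemicals (10-point, 0.002 - 200 uM) preincubated 2 h with alginate-water lids, medium moved onto VM7Luc4E2 cells for 24 h. Fluorescent live-cell protease readout; bidirectional curve fit.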
# [12] = target: Ratio of Nucleoli Translocation and Cytoplasm, AR (gene 367) (UniProt P10275); test: UPITT_HCI_U2OS_AR_TIF2_Nucleoli_Cytoplasm_Ratio_Antagonist: University of Pittsburgh U2OS Androgen Receptor-Transcriptional Intermediary Factor 2 (AR-TIF2) Antagonism High Content Imaging Assay for Ratio of Nucleoli Translocation and Cytoplasm (AID 2283999);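 further: antagonists lower the DHT-driven ratio of nucleolar to cytoplasmic red signal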
# Procedure, shortened: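 High-content imaging quantifies the red nucleolar:cytoplasmic fluorescence ratio in U2OS cells with AR-RFP and TIF2-GFP. Final concentrations are 20 uM (screen) or 0.195–50 uM (dose response), analysed against DHT as baseline.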
# [13] = target: Ratio of Nucleoli Translocation and Cytoplasm, AR (gene 367) (UniProt P10275); test: UPITT_HCI_U2OS_AR_TIF2_Nucleoli_Cytoplasm_Ratio_Agonist: University of Pittsburgh U2OS Androgen Receptor-Transcriptional Intermediary Factor 2 (AR-TIF2) Agonism High Content Imaging Assay for Ratio of Nucleoli Translocation and Cytoplasm (AID 2284000);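 further: hits raise the red nucleolar to cytoplasm ratio above vehicle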
# Procedure, shortened: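 U2OS cells expressing RFP-tagged human AR and GFP-tagged TIF2 were imaged by high-content fluorescence microscopy. The endpoint is the ratio of nucleolar to cytoplasmic red fluorescence, fitted for gain of signal relative to DMSO. Concentration-response spanned 0.195 to 50 uM final (0.5% DMSO).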
# [14] = CCTE_Harrill_HTTr_CellCount_MCF7: CCTE's Cell Proliferation Assessment for the High-Throughput Transcriptomics (HTTr) Platform, Harrill Lab (AID 2284012);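 further: count of Hoechst-stained nuclei per well by high-content imaging in MCF-7 cells; cells exposed to compound for six hours; intended direction is loss of nuclei count meaning fewer cells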
# Procedure, shortened: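 Nuclei counting (Hoechst, high content imaging) in MCF-7 after a 6 h treatment at eight concentrations. Activity fitted bidirectionally, DMSO as negative control.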
# [15] = CCTE_Shafer_MEA_acute_LDH: CCTE's Lactate Dehydrogenase Assay for Cytotoxicity in the Neural Acute Assay, Shafer Lab (AID 2284086);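 further: active means LDH release rises above DMSO vehicle level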
# Procedure, shortened: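 Released lactate dehydrogenase, read at 490 nm, indicated cytotoxicity after acute 40-min compound treatment of rat cortical neuron networks grown on 48-well MEA plates.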
structure (smiles),measurement,setting,value
CCCCCCCCOC(=O)c1ccccc1C(=O)OCCCCCCCC,AC50,[1],inconclusive: 19.8 µM
same,AC50,[2],inconclusive: 8.76 µM
c1cc2c3c(cccc3c1)CC2,AC50,[3],inconclusive: 10 µM
O=C1C2(Cl)C3(Cl)C4(Cl)C(Cl)(Cl)C5(Cl)C3(Cl)C1(Cl)C5(Cl)C24Cl (stereo not drawn),AC50,[3],active: 8.19 µM
CC1(C)CCC(=Cc2ccc(Cl)cc2)C1(O)Cn1cncn1 (stereo not drawn),outcome,[4],inactive
COP(=O)(OC)OC(Br)C(Cl)(Cl)Br (stereo not drawn),AC50,[5],active: 7.73 µM and active: 16.4 µM
CCOP(=O)(OCC)Oc1nc(Cl)c(Cl)cc1Cl,AC50,[6],active: 50 µM
CCCCC(O)(Cn1cncn1)c1ccc(Cl)cc1Cl (stereo not drawn),AC50,[7],active: 78.4 µM
same,AC50,[8],inconclusive: 115 µM
same,AC50,[9],active: 162 µM
same,AC50,[10],inconclusive: 100 µM
same,AC50,[11],active: 100 µM
same,AC50,[4],inconclusive: 20 µM
CC(C)(c1ccc(OCC2CO2)cc1)c1ccc(OCC2CO2)cc1 (stereo not drawn),AC50,[12],active: 38.1 µM
same,outcome,[13],inactive
same,AC50,[14],inconclusive: 50 µM
COC(=O)c1c(C(F)F)nc(C(F)(F)F)c(C2=NCCS2)c1CC(C)C,AC50,[12],inconclusive: 50 µM
same,outcome,[14],inactive
COP(=O)(OC)O/C(=C\Cl)c1cc(Cl)c(Cl)cc1Cl,AC50,[13],active: 50 µM
same,AC50,[8],inconclusive: 68 µM
same,AC50,[9],active: 100 µM
same,outcome,[5],inactive
O=CNC(N1CCN(C(NC=O)C(Cl)(Cl)Cl)CC1)C(Cl)(Cl)Cl (stereo not drawn),outcome,[12],inactive
C=COCCCl,outcome,[13],inactive
O=C(CCl)Nc1ccccc1,AC50,[12],active: 26.3 µM
O=[N+]([O-])C(Br)(CO)CO,outcome,[12],inactive
same,AC50,[4],active: 26.9 µM
same,AC50,[15],inconclusive: 20 µM

# Retrieved one by one from the list above, 2 records:
structure (smiles),measurement,setting,value
O=C(CCl)Nc1ccccc1,AC50,[12],active: 26.3 µM
COC(=O)c1c(C(F)F)nc(C(F)(F)F)c(C2=NCCS2)c1CC(C)C,AC50,[12],inconclusive: 50 µM
